{"source": "patent US20220273562A1", "about": "“HYDROPHOBICALLY ASSOCIATING POLYMER COUNTER ION PAIR COMPLEXES” (MALVERN COSMECEUTICS LIMITED, priority 2019, published 2022)", "assay": "Stability of the mixtures after 2-4 mths at 4° C.", "assay_type": "physicochemical", "design": "key: S-stable; PS—partially stable; NS—not stable", "details": "SMA 1:1 50 mg, DLPC 20 mg, 2 ml; amine HCl: isopentylamine 3 mg, isobutylamine 9 mg, tyramine 5-6 mg, diphenhydramine 2.5-4 mg, phenylalanine ethyl ester 10 mg, tolazoline 5 mg, naphazoline 8 mg total", "note": "Counter-ions that a name gives are not always drawn.", "data": [{"smiles": "CN(C)CCOC(c1ccccc1)c1ccccc1", "note": "[Diphenhydramine, diphenhydramine hydrochloride, reference compound]", "values": [{"measurement": "Stability* After 2-4 mths + at 4° C.", "value": "S"}]}]}
